Results: patent publication US6768043B2, “Das5, a P450 protein involved in the brassinosteroid biosynthesis pathway in plants” (The Salk Institute for Biological Studies, priority 2001, dated 2004)

Assay: Endogenous levels of brassinosteroid pathway intermediates in rosette leaves of transgenic/mutant Arabidopsis (HPLC purification, GC-MS selected ion analysis)
Design: species or system Arabidopsis thaliana
Conditions: short day, 5 weeks

| Compound | content (Das5-D/WT Arabidopsis) [ng/g fw] | content (WT Arabidopsis) [ng/g fw] | content (das1-D/WT Arabidopsis) [ng/g fw] | content (das1-D/det2 Arabidopsis) [ng/g fw] | content (das5-D/det2 Arabidopsis) [ng/g fw] | content (det2 mutant Arabidopsis) [ng/g fw] |
| --- | --- | --- | --- | --- | --- | --- |
| CC(C)[C@H](C)[C@@H](O)[C@H](O)[C@@H](C)[C@H]1CC[C@H]2[C@@H]3CC(=O)[C@H]4C[C@H](O)CC[C@]4(C)[C@H]3CC[C@]12C [typhasterol] | 0.19 | 0.03 | 0.03 | 0.53 | 0.80 | 0.39 |
| CC(C)[C@H](C)[C@@H](O)[C@H](O)[C@@H](C)[C@H]1CC[C@H]2[C@@H]3CC[C@H]4C[C@H](O)CC[C@]4(C)[C@H]3CC[C@]12C [6-deoxotyphasterol] | 8.43 | 1.59 | 4.61 | 0.10 | 0.15 | 0.07 |
| CC(C)[C@H](C)CC[C@@H](C)[C@H]1CC[C@H]2[C@@H]3CC=C4C[C@@H](O)CC[C@]4(C)[C@H]3CC[C@]12C [campesterol] | 24900 | 30000 | 13300 | 9400 | 9900 | 9900 |
| CC(C)[C@H](C)[C@@H](O)[C@H](O)[C@@H](C)[C@H]1CC[C@H]2[C@@H]3CC(=O)[C@H]4C[C@H](O)[C@H](O)C[C@]4(C)[C@H]3CC[C@]12C [castasterone] | 0.57 | 0.24 | 0.14 | 0.11 | 0.17 | 0.04 |
| C=C(CC[C@@H](C)[C@H]1CC[C@H]2[C@@H]3CC=C4C[C@@H](O)CC[C@]4(C)[C@H]3CC[C@]12C)C(C)C [24-methylenecholesterol] | 1400 | 1880 | 2340 | 480 | 360 | 480 |
| CC(C)[C@H](C)[C@@H](O)[C@H](O)[C@@H](C)[C@H]1CC[C@H]2[C@@H]3CC[C@H]4C[C@H](O)[C@H](O)C[C@]4(C)[C@H]3CC[C@]12C [6-deoxocastasterone] | 15.2 | 2.31 | 11.2 | 0.06 | 0.09 | 0.01 |
| CC(C)[C@H](C)C[C@H](O)[C@@H](C)[C@H]1CC[C@H]2[C@@H]3CC(=O)[C@H]4C[C@@H](O)CC[C@]4(C)[C@H]3CC[C@]12C [cathasterone] | 0.15 |  |  | 0.23 | 0.59 |  |
| CC(C)[C@H](C)C[C@H](O)[C@@H](C)[C@H]1CC[C@H]2[C@@H]3CC[C@H]4C[C@@H](O)CC[C@]4(C)[C@H]3CC[C@]12C [6-deoxocathasterone] | 32.0 | 0.79 | 21.1 | 0.08 | 0.95 | 0.23 |
| CC(C)[C@H](C)[C@@H](O)[C@H](O)[C@@H](C)[C@H]1CC[C@H]2[C@@H]3CC[C@H]4C[C@@H](O)CC[C@]4(C)[C@H]3CC[C@]12C [6-deoxoteasterone] | 1.00 | 0.23 | 0.57 | 0.20 | 0.64 | 0.28 |
| CC(C)[C@H](C)CC[C@@H](C)[C@H]1CC[C@H]2[C@@H]3CC(=O)[C@H]4C[C@@H](O)CC[C@]4(C)[C@H]3CC[C@]12C [6-oxocampestanol] | 33 | 59 | 24 | 17 | 16 | 24 |
